PubChem BioAssay AID504791 – Drosophila RNAi Screening Center, 2011

Test: 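Genes whose knock-down strengthens or weakens small-RNA reporter silencing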 (primary screen)
Cells: Drosophila S2-derived reporter cells
Knock-down reagent: long dsRNA against Drosophila genes, about 150-250 ng dsRNA per well (siRNA assay); about 80-120 ng (miRNA assay)
Time to read-out: about 5 days (siRNA assay); about 4 days (miRNA assay)
Challenge: copper sulfate induction of reporters: 25 µM (siRNA assay); 200 mM stated (miRNA assay), 1-2 days before reading
Read-out: 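Dual luciferase assay: Renilla to firefly signal ratio in each well, scaled to the mean ratio of its plate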
Call rule: 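a well was a first-pass pick when its plate-scaled ratio rose above 1.5 (siRNA assay) or 1.6 (miRNA assay), or dropped below 0.6; a gene counted only if two separate dsRNAs agreed on retest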
The screen tested about 23,000 reagents; shown is a random part of those with a known target gene and a result. In the full data, 199 (0.86%) are marked active. 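Plate-scaled ratios behind the calls are not deposited; printed light signals are raw; many rows marked increased or decreased are still called inactive.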 A number with no mark means an inactive call. A plus sign joins genes that one reagent is predicted to hit. Not given: the direction of the score.

no.	gene	amplicon	stable siRNA reporter change	miRNA reporter change	stable assay Renilla, run 1 (luminescence)	stable assay firefly, run 1 (luminescence)
1	CG31091	DRSC15933			6542	3.62e5
2	COX6AL2 + Ir75d	DRSC10081			6207	3.96e5
3	SkpB (SKP1-related B)	DRSC07683			5924	5.16e5
4	SkpB (SKP1-related B)	DRSC25160		reporter ratio lowered past the hit cutoff		
5	CG30284	DRSC22150			9318	6.23e5
6	Rtf1	DRSC04085	reporter ratio lowered past the hit cutoff (active)		7258	1.22e6
7	Adgf-E (Adenosine deaminase-related growth factor E)	DRSC05973			5919	3.03e5
8	CG31821	DRSC22162			9333	6.19e5
9	CG30273	DRSC22059			9309	4.66e5
10	CG15820	DRSC08480			11133	4.15e5
11	CG15820	DRSC27847		reporter ratio lowered past the hit cutoff		
12	ZnT86D (Zinc transporter 86D)	DRSC16091			6031	3.55e5
13	ncd (non-claret disjunctional)	DRSC17012			7460	4.39e5
14	E(spl)m5-HLH (Enhancer of split m5, helix-loop-helix)	DRSC16695			7506	3.19e5
15	CG15221	DRSC19659			5323	3.95e5
16	CG8289	DRSC20101			8566	3.78e5
17	CG8289	DRSC25677		reporter ratio raised past the hit cutoff		
18	Sec63 (Secretory 63)	DRSC11002			5391	4.52e5
19	CdGAPr (Cd GTPase activating protein-related)	DRSC03289			6838	5.70e5
20	Best1 (Bestrophin 1)	DRSC16909			3619	3.58e5
21	CG12343	DRSC06135			7864	3.38e5
22	CG33978	DRSC17106			6407	3.38e5
23	CG4325	DRSC18516			5120	2.14e5
24	CG4325	DRSC23171			5111	4.37e5
25	melt (melted)	DRSC11367			5892	4.47e5
26	beta4GalNAcTB (beta1,4-N-acetylgalactosaminyltransferase B)	DRSC14869			6368	3.67e5
27	Pp4-19C (Protein phosphatase 19C)	DRSC20559		reporter ratio lowered past the hit cutoff	5944	5.39e5
28	Pp4-19C (Protein phosphatase 19C)	DRSC21251			6706	5.24e5
29	Pp4-19C (Protein phosphatase 19C)	DRSC23319	reporter ratio raised past the hit cutoff		3544	63013
30	Pp4-19C (Protein phosphatase 19C)	DRSC26053		reporter ratio lowered past the hit cutoff		
31	Srr (Serine racemase)	DRSC16382			7022	4.46e5
32	CG33282	DRSC00422			7188	3.01e5
33	Pk34A (Protein kinase at 34A)	DRSC03398			6968	3.81e5
34	Gr97a (Gustatory receptor 97a)	DRSC13802			3844	3.46e5
35	Tim17a2	DRSC12252			7086	5.07e5
36	Lcp1Psi (Larval cuticle protein 1 pseudogene)	DRSC05105			5411	4.33e5
37	Gpo3 (Glycerophosphate oxidase 3)	DRSC01978			7171	4.44e5
38	CG14369	DRSC14831			6460	4.07e5
39	TAF1B	DRSC16001			7443	3.61e5
40	CG17300	DRSC10260			5931	4.93e5
41	CG12432 (retired record)	DRSC19455			4931	5.11e5
42	Tsp42A (Tetraspanin 42A)	DRSC04862			6434	4.26e5
43	CG13001	DRSC19520			6151	4.88e5
44	CG13001	DRSC22443			5379	5.46e5
45	Sdc (Syndecan)	DRSC04654			5098	3.34e5
46	aqrs (aquarius)	DRSC14724			7204	3.75e5
47	Gr93d (Gustatory receptor 93d)	DRSC21941			8789	5.42e5
48	CG5162	DRSC19935			5900	4.49e5
49	yrt (yurt)	DRSC16559			9095	6.74e5
50	CG31230	DRSC22130			9134	8.19e5
51	CG31230	DRSC26678		reporter ratio raised past the hit cutoff		
52	CG2698	DRSC15447			6383	4.07e5
53	slx1 (nuclease slx1)	DRSC12290			7400	3.74e5
54	CG9265	DRSC03178			6875	4.23e5
55	CG9265	DRSC03179			6706	4.08e5
56	Kaz-m1 (Kazal-type protease inhibitor m1)	DRSC16990			6856	3.65e5
57	CG6674	DRSC10692			12101	5.34e5
58	EMC5 (ER membrane protein complex subunit 5)	DRSC02469			6028	4.37e5
59	CG13895	DRSC08365			5474	2.94e5
60	CG18473	DRSC16381			6659	5.54e5
61	rpr (reaper)	DRSC11390		reporter ratio raised past the hit cutoff	7574	4.01e5
62	Irc (Immune-regulated catalase)	DRSC16454			8823	2.67e5
63	Rad23	DRSC17167			8450	4.62e5
64	Usf	DRSC18129			5947	2.42e5
65	nesd (nessun dorma)	DRSC02099			8454	2.37e6
66	Karybeta3 (Karyopherin beta 3)	DRSC12355			11518	4.00e5
67	CG5608	DRSC15841			7554	4.60e5
68	jef (jet fuel)	DRSC06198			6910	4.16e5
69	Rim2 (Replication in mitochondria 2)	DRSC00073			4922	3.99e5
70	Rim2 (Replication in mitochondria 2)	DRSC00520			11418	6.13e5
71	Rim2 (Replication in mitochondria 2)	DRSC22699			3775	3.58e5
72	CG3513	DRSC00608			7224	3.59e5
73	SmydA-6 (SET and MYND domain containing, arthropod-specific, member 6)	DRSC07341			6652	3.00e5
74	CG3829	DRSC04423			20490	1.42e6
75	CG13151	DRSC06276			5748	2.57e5
76	CycC (Cyclin C)	DRSC16619			6818	4.27e5
77	CG4313	DRSC18514			8099	4.46e5
78	Ssu72 (Ssu72 CTD phosphatase)	DRSC19572			6303	6.09e5
79	CG4021	DRSC04439			6514	3.66e5
80	CG7582	DRSC16261			7682	4.56e5
81	Jheh1 (Juvenile hormone epoxide hydrolase 1)	DRSC06529			9974	3.84e5
82	Aatf (Apoptosis antagonizing transcription factor)	DRSC02131			6718	4.44e5
83	mRpS18C (mitochondrial ribosomal protein S18C)	DRSC16538			6294	5.41e5
84	CG6028	DRSC15951			8041	3.71e5
85	CG14778	DRSC17953			6338	4.27e5
86	ebd2 (earthbound 2)	DRSC11682			8235	3.46e5
87	ArgRS (Arginyl-tRNA synthetase)	DRSC20138			6271	4.50e5
88	CG7668	DRSC10901			8182	3.33e5
89	Nipped-B	DRSC07815			5998	4.29e5
90	CG30156	DRSC04959			4763	5.38e5
91	CG9875	DRSC04585			5370	3.20e5
92	CG33144	DRSC06132			7966	3.18e5
93	CG33144	DRSC07024			7923	4.78e5
94	Tasp1 (Taspase 1)	DRSC10495			7851	3.06e5
95	CG42249	DRSC19383			5122	3.69e5
96	CG42249	DRSC19826			5131	5.02e5
97	CG14297	DRSC14776	reporter ratio lowered past the hit cutoff		6027	5.77e5
98	CG5098	DRSC06915			7686	2.97e5
99	CG30148	DRSC06391			3827	3.65e5
100	CG12974	DRSC11684			7918	4.65e5
101	CG42784	DRSC02534			4904	1.13e6
102	CG42784	DRSC02535			5740	2.34e5
103	CG42784	DRSC22804			2519	2.45e5
104	CG42784	DRSC23000			3043	2.88e5
105	CG6885	DRSC10740		reporter ratio lowered past the hit cutoff	6014	3.98e5
106	CG7953	DRSC01902		reporter ratio lowered past the hit cutoff	6810	1.67e6

Targets above whose gene name starts with R or r:
gene	amplicon	stable siRNA reporter change	miRNA reporter change	stable assay Renilla, run 1 (luminescence)	stable assay firefly, run 1 (luminescence)
Rtf1	DRSC04085	reporter ratio lowered past the hit cutoff (active)		7258	1.22e6
rpr (reaper)	DRSC11390		reporter ratio raised past the hit cutoff	7574	4.01e5
Rad23	DRSC17167			8450	4.62e5
Rim2 (Replication in mitochondria 2)	DRSC00073			4922	3.99e5
Rim2 (Replication in mitochondria 2)	DRSC00520			11418	6.13e5
Rim2 (Replication in mitochondria 2)	DRSC22699			3775	3.58e5
